{"source": "PubChem BioAssay AID1259308, NCATS – 2017", "screen": "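Knock-downs that increase output of a recombinant reporter protein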 (primary screen)", "cells": "human HEK293 embryonic kidney cells stably expressing firefly luciferase (HEK-CMV-Luc2-Hygro)", "knock-down reagent": "single siRNA against human genes, 0.8 pmol siRNA per well", "duration": "72 h", "measured": "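Reporter luminescence and viable-cell signal on separate replicate plates, given as percent of non-targeting control and median/MAD z-scores, plus per-cell luciferase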", "direction": "total luciferase, z-score and total luciferase, % of control: higher = more reporter protein produced", "call rule": "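Active when the median/MAD z-score for overall luciferase is greater than 3; a gene was taken forward for validation with new siRNAs if at least two of its three siRNAs passed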", "calls": "active = raised luciferase; inactive = no rise", "note": "In all, the deposit lists about 59,000 reagents; shown is a part drawn at random. About 1,510 of them (2.6%) count as active. 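Calls use total luciferase alone and ignore viability, so some active siRNAs may act by altering cell number.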 The numbers tell different reagents against one gene apart. Not all columns of the deposit are shown. No sequences are given here."}
{"Gene": "SCGB2A1", "siRNA no.": 1, "total luciferase, z-score": -1.13, "total luciferase, % of control": 59.3, "Outcome": "inactive"}
{"Gene": "SCGB2A1", "siRNA no.": 2, "total luciferase, z-score": -0.11, "total luciferase, % of control": 79.7, "Outcome": "inactive"}
{"Gene": "SCGB2A1", "siRNA no.": 3, "total luciferase, z-score": 1.4, "total luciferase, % of control": 110, "Outcome": "inactive"}
{"Gene": "ALDH2", "siRNA no.": 1, "total luciferase, z-score": -0.14, "total luciferase, % of control": 79.1, "Outcome": "inactive"}
{"Gene": "ALDH2", "siRNA no.": 2, "total luciferase, z-score": -0.161, "total luciferase, % of control": 78.7, "Outcome": "inactive"}
{"Gene": "ALDH2", "siRNA no.": 3, "total luciferase, z-score": -0.0957, "total luciferase, % of control": 80, "Outcome": "inactive"}
{"Gene": "SPX", "siRNA no.": 1, "total luciferase, z-score": 1.08, "total luciferase, % of control": 103, "Outcome": "inactive"}
{"Gene": "SPX", "siRNA no.": 2, "total luciferase, z-score": -0.224, "total luciferase, % of control": 77.4, "Outcome": "inactive"}
{"Gene": "SPX", "siRNA no.": 3, "total luciferase, z-score": 0.607, "total luciferase, % of control": 94, "Outcome": "inactive"}
{"Gene": "CLDN8", "siRNA no.": 1, "total luciferase, z-score": -0.517, "total luciferase, % of control": 71.6, "Outcome": "inactive"}
{"Gene": "CLDN8", "siRNA no.": 2, "total luciferase, z-score": -0.674, "total luciferase, % of control": 68.5, "Outcome": "inactive"}
{"Gene": "CLDN8", "siRNA no.": 3, "total luciferase, z-score": -0.291, "total luciferase, % of control": 76.1, "Outcome": "inactive"}
{"Gene": "TRAPPC14", "siRNA no.": 1, "total luciferase, z-score": -0.134, "total luciferase, % of control": 79.2, "Outcome": "inactive"}
{"Gene": "TRAPPC14", "siRNA no.": 2, "total luciferase, z-score": -0.304, "total luciferase, % of control": 75.8, "Outcome": "inactive"}
{"Gene": "TRAPPC14", "siRNA no.": 3, "total luciferase, z-score": 1.24, "total luciferase, % of control": 107, "Outcome": "inactive"}
{"Gene": "SNX32", "siRNA no.": 1, "total luciferase, z-score": 0.743, "total luciferase, % of control": 96.7, "Outcome": "inactive"}
{"Gene": "SNX32", "siRNA no.": 2, "total luciferase, z-score": 0.471, "total luciferase, % of control": 91.3, "Outcome": "inactive"}
{"Gene": "SNX32", "siRNA no.": 3, "total luciferase, z-score": -0.422, "total luciferase, % of control": 73.5, "Outcome": "inactive"}
{"Gene": "H2AC4", "siRNA no.": 1, "total luciferase, z-score": -0.518, "total luciferase, % of control": 71.6, "Outcome": "inactive"}
{"Gene": "H2AC4", "siRNA no.": 2, "total luciferase, z-score": -1.67, "total luciferase, % of control": 48.7, "Outcome": "inactive"}
{"Gene": "H2AC4", "siRNA no.": 3, "total luciferase, z-score": -1.6, "total luciferase, % of control": 50.1, "Outcome": "inactive"}
